From patent US20220265694A1, “COMPOSITIONS AND METHODS FOR TREATING AN INFECTION” (CMPD LICENSING, LLC, priority 2016, published 2022) come the findings set out here.

SMILES strings stand for the structures.

In this assay the test system is Mycoplasma pneumoniae. Put plainly: Expected efficacy of antibiotic agents. The conditions noted are these: expected efficacy against Mycoplasma pneumoniae; Gram: n/a.

Consider `O=C(O)c1cn(C2CC2)c2cc(N3CCNCC3)c(F)cc2c1=O` [Ciprofloxacin], for which the Efficacy result is “yes”.
